For 42 compounds, cell number change and AC50 results are on record in PubChem BioAssay AID2685 (National Center for Advancing Translational Sciences (NCATS), 2010).

This assay in a line: qHTS Assay for Lipid Storage Modulators in Drosophila S3 Cells.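 For cell number change: cells counted by Cell Tracker Red CMTPX staining in the red channel.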 As to conditions: BODIPY lipid droplet fluorescence, 18-24 h; for cell number change: measured here: cell count max response, cells fed with added oleic acid. In outline:
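Drosophila S3 cells got compounds at several concentrations plus oleic acid (400 uM solution). Laser-scanning cytometry with 488 nm excitation read lipid droplets at 500-530 nm and cells at 575-640 nm. Percent activity was relative to 20 uM Triacsin C.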

Where [1] appears, read: measured here: lipid fluorescence (Fed channel) AC50, cells fed with added oleic acid.
[2] abbreviates: measured here: cell number channel AC50, cells fed with added oleic acid.

The other results are listed elsewhere or left out. These are further read-outs of the screen, such as a control signal, another cell line or another target. No call is given for them. Compounds called inactive in the main read-out are mostly missing here. The note in brackets gives the kind of curve behind each potency; many fits are weak.

For the compound `O=C1C(C2=NC(C(=O)O)C3C(=O)N(c4ccccc4)C(=O)C23)=C(O)c2ccccc21` (stereo not given), the cell number change is -27.3%.

The term AC50 denotes the concentration giving half of the maximal activity seen. The low end stands for activity at low concentration, the high end for activity only at high concentration. `Cc1cccc(NC(=O)c2nc[nH]c2C(=O)N2CCN(C(=O)OC(C)(C)C)CC2)c1`: the cell number change is -21.2%. The AC50 under setting [1] is 0.517 µM [rising, partial curve].

In the case of `Cn1ncc(Br)c1C(=O)N1CCCCCC1`, the cell number change is -8.38%. Besides, the AC50 under setting [1] was 3.26 µM [falling, single point].

`Cc1ccc2c(c1)C(=O)CC(O)(C(F)F)O2` (stereo not given): the cell number change was -7.95%.

Regarding `CCOc1cc(/C=N/N=C/c2ccc(O)c(OCC)c2)ccc1O`, the cell number change is -16.2%.

On to `Cc1cccc(NC(=O)c2nc[nH]c2C(=O)NCC(=O)OCc2ccccc2)c1`, for which the cell number change came to 7.26%. Further, under setting [1], the AC50 was 29.1 µM [rising, single point].

As for `COc1ccc2c(c1)c(=O)oc1cc(OCC(=O)N3CCCC(C)C3)ccc12` (stereo not given), the cell number change was 122%. Moreover, under setting [2], the AC50 is 29.1 µM [rising, single point]. Besides, the AC50 under setting [1] is 29.1 µM [rising, partial curve].

For the compound `C=CCn1c(SCC(=O)NC2CCCC2)nnc1-c1cccnc1`, the cell number change is 5.62%.

Take `Cc1cc(C(=O)N/N=C/c2cccc([N+](=O)[O-])c2)c(C)n1-c1ccccc1`: the cell number change was 80.5%. In addition, the AC50 under setting [2] is 29.1 µM [rising, single point]. Moreover, under setting [1], the AC50 was 29.1 µM [rising, partial curve].

For the compound `CCCCCCCCNC(=O)c1ccc(C)cc1`, the cell number change amounted to 72.6%. Also, under setting [2], the AC50 was 18.4 µM [rising, single point]. In addition, the half-maximal activity concentration (AC50) under setting [1] is 23.1 µM [rising, single point].

Consider `CC(=O)N1N=C(c2cccc([N+](=O)[O-])c2)OC1c1ccccc1Cl` (stereo not given), for which the cell number change was found to be 159%. The AC50 under setting [2] is 0.00411 µM [rising, full curve, poor fit]. The AC50 under setting [1] is 25.9 µM [rising, single point].

Consider `Cc1ccccc1NC(=O)COC(=O)CCSc1ccccc1`, for which the cell number change was determined as 59.3%. The AC50 under setting [2] is 7.31 µM [rising, partial curve]. In addition, the AC50 under setting [1] was 6.51 µM [rising, single point].

Take `O=C(Nc1ccnn1C1CCN(CC2CC=CCC2)CC1)c1ccccc1` (stereo not given): the cell number change amounted to 5.52%. Moreover, the AC50 under setting [1] is 0.58 µM [rising, single point].

`C/C(=N\NC(=O)c1c(Cl)c(C)nn1C)c1ccc(NC(=O)c2ccncc2)cc1`: the cell number change is -1.1%.

As to `Fc1ccc(CSc2nnc(-c3cccs3)o2)cc1`, the cell number change is -18.2%. The AC50 under setting [2] is 0.146 µM [falling, full curve, poor fit].

With `C=CCC(C)(NCc1ccccc1)c1ccc(C)cc1` (stereo not given), the cell number change is -40.2%. The AC50 under setting [2] was 23.1 µM [falling, single point]. Also, the AC50 under setting [1] was 23.1 µM [falling, single point].

For `COc1cc(C2CC(=O)Nc3ccccc3S2)cc(OC)c1OC` (stereo not given), the AC50 under setting [2] was 3.66 µM [rising, single point].

As to `CN(C)C(=O)COc1ccc2ccc(=O)oc2c1`, the cell number change is 25.2%.

Turning to `COCCN1Cc2cccc(C(=O)Nc3ccccc3OC)c2C1=O`, the cell number change was found to be 13.3%. In addition, the AC50 under setting [1] was 0.366 µM [rising, full curve].

With `CSc1ccc(/C=C/C(=O)NC(=O)c2ccccc2O)cc1`, the cell number change was -29.2%. Also, under setting [1], the AC50 was 18.4 µM [falling, single point].

`Cc1ccc(NC(=S)Nc2ccc(Cl)c(Cl)c2)c(OC(F)F)c1`: the cell number change was -53.1%. Besides, the AC50 under setting [2] was 29.1 µM [falling, single point]. Besides, the half-maximal activity concentration (AC50) under setting [1] is 29.1 µM [falling, single point].

As to `O=C(Nc1ccnn1C1CCN(C(=O)c2cnsn2)CC1)c1cccc(F)c1`, the cell number change was -25.4%. For the same compound, the AC50 under setting [1] is 29.1 µM [falling, single point].

Regarding `CCCc1cc(=O)oc2c(C)c(O[C@@H]3O[C@H](CO)[C@@H](O)[C@H](O)[C@H]3O)ccc12`, the cell number change worked out at 9.92%.

`Cc1ccccc1N1CCN(c2ncnc3scc(-c4cccs4)c23)CC1`: the cell number change was -10.4%.

For the compound `COc1ccc([C@@H]2[C@@H]3C(=O)N(C(C)(C)C)C(=O)[C@@H]3[C@]3(Cc4ccccc4)C(=O)N(c4ccccc4)C(=O)N23)cc1`, the cell number change was 24.6%. The AC50 under setting [1] is 29.1 µM [rising, single point].

In the case of `COCc1c(C(=O)NC2CCCCCC2)oc2ccccc12`, the AC50 is, setting by setting: under setting [2], 0.092 µM [rising, full curve, poor fit]; under setting [1], 0.103 µM [rising, full curve, poor fit].

As to `Cc1cc(C)n(CCCNC(=O)c2ccco2)n1`, the cell number change was determined as 14.1%. In addition, the AC50 under setting [1] is 20.6 µM [rising, single point].

On to `O=C(CC1SC(N2CCOCC2)=NC1=O)Nc1ccc(Cl)cc1` (stereo not given), for which the cell number change is -21.7%. Also, the AC50 under setting [2] was 0.00517 µM [falling, full curve, poor fit].

For `NC(=O)COc1ccc(-c2noc(COc3ccccc3[N+](=O)[O-])n2)cc1`, the cell number change was found to be 32.8%.

Regarding `COc1ccc(NC(=S)Nc2cc(S(=O)(=O)N3CCCCC3)ccc2OC)cc1`, the cell number change was determined as 16.7%. Also, under setting [1], the AC50 was 4.11 µM [rising, single point].

With `C=CCNc1nc(N)c(C(=C(C#N)C#N)c2ccccc2)s1`, the cell number change is 150%. Further, the AC50 under setting [2] was 2.31 µM [rising, partial curve].

Turning to `COCC(=O)OCC(=O)Nc1cc(C(C)(C)C)nn1-c1ccccc1`, the cell number change was 41%.

In the case of `O=C1CC(C(=O)N2CCc3ccccc32)CN1c1ccc(F)cc1` (stereo not given), the cell number change is 2.17%.

`NS(=O)(=O)c1ccc2nc(NC(=O)Nc3ccc(F)cc3)sc2c1`: the cell number change was 21.4%. In addition, the AC50 under setting [2] is 0.00461 µM [rising, full curve, poor fit]. Moreover, the AC50 under setting [1] was 29.1 µM [rising, single point].

Consider `O=C(NCCN1CCCCC1)Nc1cccc(Cl)c1Cl`, for which the cell number change is -4.95%.

For the compound `O=C(/C=C/c1ccccc1)NCC1(c2ccccc2)CCOCC1`, the cell number change is 15%.

Turning to `FC(F)(F)c1cnc2c(-c3ccccc3)n[nH]c2c1`, the cell number change was -12.4%.

With `Cc1ccc(S(=O)(=O)N2CCN(c3ncnc4sccc34)CC2)cc1`, the cell number change was -37.4%. Also, the AC50 under setting [2] is 16.4 µM [falling, single point].

With `O=C(CSc1cn(CCNC(=O)c2ccccc2)c2ccccc12)NCc1ccco1`, the cell number change is -10.3%. In addition, the AC50 under setting [1] was 0.326 µM [rising, full curve, poor fit].

Consider `CCCCOC(=O)c1cc(=O)[nH]c2ccccc12`, for which the AC50 under setting [2] is 3.26 µM [rising, single point].

As to `COc1ccc(N2CCN(C(=O)C3CCN(C(=O)c4ccccc4Cl)CC3)CC2)cc1`, the cell number change amounted to 20.4%.

In the case of `Cc1ccc(-c2nn3c(C)nnc3s2)cc1NC(=O)COc1ccc(Cl)cc1`, the cell number change was -39.9%. For the same compound, the AC50 under setting [2] was 7.31 µM [falling, partial curve].
